The source of these data is publication PMC10940316.

Results are given in words; binding and its absence hold for the method and conditions named. Binding seen in cells or lysates may run through a third protein. Binding can be weak; no strength is given.

This assay deals with PMP22 with a C-terminal ALFA-tag. Description: pull-down; 10 µg purified PMP22-ALFA bound to ALFA-Selector CE magnetic beads, incubated 2 h at 4 °C with precleared rat sciatic nerve (P18) lysate (140 µg protein, 0.23% DDM diluted to 0.047%) of WT and CMT1A rats; six washes, elution with ALFA-peptide; empty beads as control; Western blot; only the target purified.

B1: P0, endogenous in rat sciatic nerve (protein, UniProt P06907 30-248)
chain: IVVYTDREVYGAVGSQVTLHCSFWSSEWVSDDISFTWRYQPEGGRDAISIFHYAKGQPYIDEVGTFKERIQWVGDPSWKDGSIVIHNLDYSDNGTFTCDVKNPPDIVGKTSQVTLYVFEKVPTRYGVVLGAVIGGILGVVLLLLLLFYLIRYCWLRRQAALQRRLSAMEKGKFHKSSKDSSKRGRQTPVLYAMLDHSRSTKAASEKKSKGLGESRKDKK
For B1, the binding entry was “binds”.
